No constants are given. Whether binding was seen depends on the method and setting. Binding seen in cells or lysates may run through a third protein. Some results given as binding are weak or reduced against the parent protein; the word gives no strength. Where a sequence is shown, tags or fusion partners need not be part of it.
Biological target: T1, HRPA-1::AID*::TEV::FLAG (C. elegans) (UniProt Q22037)
T1 sequence: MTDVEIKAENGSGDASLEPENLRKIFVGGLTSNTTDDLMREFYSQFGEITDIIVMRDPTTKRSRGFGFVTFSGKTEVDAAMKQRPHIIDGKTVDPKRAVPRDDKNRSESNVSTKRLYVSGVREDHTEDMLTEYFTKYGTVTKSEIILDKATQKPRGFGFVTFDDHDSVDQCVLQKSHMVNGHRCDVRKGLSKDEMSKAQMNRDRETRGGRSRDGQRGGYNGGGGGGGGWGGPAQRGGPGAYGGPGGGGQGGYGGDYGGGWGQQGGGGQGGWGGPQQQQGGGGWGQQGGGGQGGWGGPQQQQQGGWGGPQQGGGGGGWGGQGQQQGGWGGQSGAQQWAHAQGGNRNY
Test: co-IP

Sequences of proteins named here, by UniProt entry; tags and fusion partners are left off.
UniProt G5EES3: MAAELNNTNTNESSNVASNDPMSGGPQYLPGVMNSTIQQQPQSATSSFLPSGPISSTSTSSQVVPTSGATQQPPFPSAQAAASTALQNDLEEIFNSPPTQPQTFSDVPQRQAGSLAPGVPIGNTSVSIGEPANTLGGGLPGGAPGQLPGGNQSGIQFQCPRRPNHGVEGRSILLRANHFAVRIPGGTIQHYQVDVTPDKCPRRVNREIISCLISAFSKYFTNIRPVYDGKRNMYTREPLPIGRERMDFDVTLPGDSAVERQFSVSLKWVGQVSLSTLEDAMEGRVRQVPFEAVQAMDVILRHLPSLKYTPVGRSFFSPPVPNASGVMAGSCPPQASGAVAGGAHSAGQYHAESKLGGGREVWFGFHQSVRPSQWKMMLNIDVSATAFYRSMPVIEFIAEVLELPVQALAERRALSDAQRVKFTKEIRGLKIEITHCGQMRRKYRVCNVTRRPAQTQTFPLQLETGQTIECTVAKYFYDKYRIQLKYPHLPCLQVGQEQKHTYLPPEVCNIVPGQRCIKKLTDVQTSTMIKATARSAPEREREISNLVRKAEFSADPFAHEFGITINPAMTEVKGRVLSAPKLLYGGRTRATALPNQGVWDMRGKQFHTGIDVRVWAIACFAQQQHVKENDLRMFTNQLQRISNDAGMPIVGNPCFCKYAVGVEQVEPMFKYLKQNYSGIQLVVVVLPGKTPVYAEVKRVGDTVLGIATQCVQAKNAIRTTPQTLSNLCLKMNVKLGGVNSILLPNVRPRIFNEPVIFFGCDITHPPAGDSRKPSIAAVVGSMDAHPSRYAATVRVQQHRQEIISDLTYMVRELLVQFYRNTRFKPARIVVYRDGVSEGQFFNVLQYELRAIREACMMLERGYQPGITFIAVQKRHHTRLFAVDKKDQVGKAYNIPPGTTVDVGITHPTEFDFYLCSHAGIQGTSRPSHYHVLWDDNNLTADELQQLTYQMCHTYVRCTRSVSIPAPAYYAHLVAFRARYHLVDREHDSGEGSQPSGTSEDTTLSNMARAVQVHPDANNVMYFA

## ALG-1 (from UniProt G5EES3 1-1023)
  binding: binds weakly
